Source: publication PMC7063196
These are yes or no findings as the source states them, for the method shown. Binding seen in cells or lysates may run through a third protein. Binding can be weak; no strength is given.

The chains behind the UniProt entries cited, without tags or fusion partners. Where a name states a change or a piece, a line headed by the entry shows the natural chain unless it says otherwise.
UniProt O35235: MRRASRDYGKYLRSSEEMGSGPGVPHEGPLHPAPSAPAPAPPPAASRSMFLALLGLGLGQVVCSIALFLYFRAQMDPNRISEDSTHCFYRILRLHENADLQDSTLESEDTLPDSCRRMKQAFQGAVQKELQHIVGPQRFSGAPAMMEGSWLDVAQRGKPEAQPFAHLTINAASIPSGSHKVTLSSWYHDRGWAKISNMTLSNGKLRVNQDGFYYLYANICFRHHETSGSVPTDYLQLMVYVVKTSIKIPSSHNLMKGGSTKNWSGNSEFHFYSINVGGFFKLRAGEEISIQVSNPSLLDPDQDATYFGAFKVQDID

Target: T1, receptor activator of nuclear factor kappa-Β (RANK), endogenous in RAW264.7 cells (mouse (endogenous in RAW264.7)) (UniProt O35305)
T1 sequence: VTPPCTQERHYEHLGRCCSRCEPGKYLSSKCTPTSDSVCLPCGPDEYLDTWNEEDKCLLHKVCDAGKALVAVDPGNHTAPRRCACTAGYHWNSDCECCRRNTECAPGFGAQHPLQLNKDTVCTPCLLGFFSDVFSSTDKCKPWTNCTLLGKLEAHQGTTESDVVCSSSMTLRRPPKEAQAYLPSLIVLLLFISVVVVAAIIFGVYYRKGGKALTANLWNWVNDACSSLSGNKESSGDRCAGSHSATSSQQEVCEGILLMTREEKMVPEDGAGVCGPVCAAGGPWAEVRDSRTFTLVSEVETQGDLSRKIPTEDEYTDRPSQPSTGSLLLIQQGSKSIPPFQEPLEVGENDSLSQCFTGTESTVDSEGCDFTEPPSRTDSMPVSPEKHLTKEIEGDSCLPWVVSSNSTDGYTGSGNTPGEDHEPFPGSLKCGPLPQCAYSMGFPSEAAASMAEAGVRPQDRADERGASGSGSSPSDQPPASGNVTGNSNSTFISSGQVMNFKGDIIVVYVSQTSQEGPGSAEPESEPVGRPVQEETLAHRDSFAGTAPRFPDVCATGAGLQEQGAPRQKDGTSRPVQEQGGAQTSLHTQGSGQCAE
Assay: pull-down; RANK immunoprecipitated from RAW264.7 lysate, held on protein A/G magnetic beads, washed, coincubated with 1 μg His-tagged RANKL or 1 μg RANKL and 10 μM FHb at room temperature for 60 min; washed with 50 mM Tris pH 7.5, 150 mM NaCl; immunoblot; both purified

binding: binds
Substance: recombinant mouse RANKL with N-terminal 6 × His tag (from UniProt O35235) (ligand)
